Measured values from doi:10.1101/2021.07.09.451853.

Chains of the proteins cited; added tags and fusions are not shown. Lines headed by an entry give the natural chain unless they say otherwise; changes in a name come on top.
UniProt Q9SGW5: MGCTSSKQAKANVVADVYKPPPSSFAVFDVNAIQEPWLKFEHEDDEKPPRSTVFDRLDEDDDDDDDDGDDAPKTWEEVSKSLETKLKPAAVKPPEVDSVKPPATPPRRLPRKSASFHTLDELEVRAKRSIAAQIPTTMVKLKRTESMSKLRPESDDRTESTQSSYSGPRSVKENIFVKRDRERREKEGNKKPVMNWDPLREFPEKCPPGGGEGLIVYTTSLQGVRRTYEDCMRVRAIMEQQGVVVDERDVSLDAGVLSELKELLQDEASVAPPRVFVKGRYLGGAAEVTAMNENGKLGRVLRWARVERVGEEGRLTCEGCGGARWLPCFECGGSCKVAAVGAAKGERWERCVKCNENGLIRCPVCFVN

Target: THRUMIN1:YFP in transgenic A. thaliana (A. thaliana) (UniProt Q9SGW5)
Experiment: affinity purification with mass spectrometry

Binder | binding
14-3-3 KAPPA, endogenous in A. thaliana (protein, UniProt P48348 1-248) MATTLSRDQYVYMAKLAEQAERYEEMVQFMEQLVSGATPAGELTVEERNLLSVAYKNVIGSLRAAWRIVSSIEQKEESRKNEEHVSLVKDYRSKVETELSSICSGILRLLDSHLIPSATASESKVFYLKMKGDYHRYLAEFKSGDERKTAAEDTMIAYKAAQDVAVADLAPTHPIRLGLALNFSVFYYEILNSSEKACSMAKQAFEEAIAELDTLGEESYKDSTLIMQLLRDNLTLWTSDMQEQMDEA | binds
14-3-3 OMEGA, endogenous in A. thaliana (protein, UniProt Q01525 1-259) MASGREEFVYMAKLAEQAERYEEMVEFMEKVSAAVDGDELTVEERNLLSVAYKNVIGARRASWRIISSIEQKEESRGNDDHVTAIREYRSKIETELSGICDGILKLLDSRLIPAAASGDSKVFYLKMKGDYHRYLAEFKTGQERKDAAEHTLAAYKSAQDIANAELAPTHPIRLGLALNFSVFYYEILNSPDRACNLAKQAFDEAIAELDTLGEESYKDSTLIMQLLRDNLTLWTSDMQDDAADEIKEAAAPKPTEEQQ | binds

These are yes or no findings as the source states them, for the method shown. Binding seen in cells or lysates may run through a third protein. These calls come from enrichment with a bait or labelling near it, and not all partners need be listed.
